Values of other authors as cited in publication PMC10056008 (Pharmaceuticals, 2023).

Conditions: co-administration of verapamil; cited from earlier work

SMILES	systemic exposure elevated by verapamil [%]
CC(C)(C(=O)O)c1ccc([C@H](O)CCCN2CCC(C(O)(c3ccccc3)c3ccccc3)CC2)cc1 [R-fexofenadine]	234
CC(C)(C(=O)O)c1ccc(C(O)CCCN2CCC(C(O)(c3ccccc3)c3ccccc3)CC2)cc1 (centres unmarked) [S-fexofenadine]	261
